Reference: the supplement of paper PMC5949888
Most values lie at the floor of the assay. Slopes are relative: functional sequences can read slightly below zero.

The substances below were run on Saccharomyces cerevisiae PS128 hsf1 delta, HSF1(1-493) fusion (assay: growth estimate (transactivation domain function in HSF1 fusion, heat-shock survival) (a.u. (slope of normalised read count over time)); higher = stronger growth at 37°C, i.e. more transactivation activity). Conditions: library: random library.
Procedure: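 Random 60-nt DNA library encoding peptides of up to 20 aa, fused to the C-terminus of yeast HSF1 residues 1-493 (C-terminal TAD deleted) and expressed from the native HSF1 promoter on a CEN plasmid in hsf1-deleted S. cerevisiae PS128. Cells were selected at 37°C on -trp 5-FOA plates for 0, 2, 4, 6 and 8 days and amplicons were sequenced. Growth estimate is the slope of a robust linear fit of total-sum-normalised read counts (normalised to the first time point) over time, using at least 2 replicates. Sequences are classed functional (TAD activity) above a threshold of -0.13, set from stop-codon control sequences.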

Substance	growth estimate
DNNVIHVHGAAPFQKVANRP	< -0.25
DNRLRLNRTLKKFERIPIHM	< -0.25
DNTRSVQGIENGRPGSLWLP	< -0.25
DPATGARRQQMRVRWELPPH	-0.229
DPDGAEVCLKLSDESLH	-0.219
DPDPIIRPKMSGGRAYCRQV	-0.245
DPDSALRIYRFGHIRGAGAV	< -0.25
DPG	< -0.25
DPGFHSRVVCARAAHGDRSH	< -0.25
DPLGAMIRRLVAIIVNTGRC	< -0.25
DPLRVMKTVSLRCANPVIGI	< -0.25
DPPPIGSVM	< -0.25
DPRAAVLFSHWARKGRIS	< -0.25
DPRAPFAIAVSRQRSTLCVV	< -0.25
DPRNRCTELMRS	< -0.25
DPTALRPRWT	< -0.25
DPTHAWVTSLDPQNDSTG	< -0.25
DPTHGARLVSVYVPHVDEVS	< -0.25
DPTYPNNVGRSRAVQAVIFL	< -0.25
DPVVADRSG	< -0.25
DPWAGSRHQVYVTSGSSD	< -0.25
DPYADYG	< -0.25
DQEGQVGSKV	< -0.25
DQFLRAHSGLTRCAHGHCCN	-0.203

Substance	growth estimate
DQHTQEPKVNISRKHRTGLA	< -0.25
DQMGESELRPRRNGGIDAWS	< -0.25
DQPAGSANQVVVVPVSSG	< -0.25
DQSDVTI	< -0.25
DQSLEV	< -0.25
DQVEGQRGAVEAQDSVSTWV	< -0.25
DQWH	< -0.25
DRANPNHQRSARPPFYWPIG	< -0.25
DRARSYSGRVYRSVGGSS	< -0.25
DRCFGKAFMF	< -0.25
DREYSASASRTSMTPAATDH	< -0.25
DRFYIASC	< -0.25
DRGEDGRVVRSTVLARSRGA	< -0.25
DRGEWGAYGGT	< -0.25
DRGKIMIAGCRSGTALSKRL	< -0.25
DRGSREHVTA	< -0.25
DRGTYAGGSGRSK	< -0.25
DRILPCHNDCHNVGSVFAVA	< -0.25
DRISGNFKKGFQRAVEVRSQ	< -0.25
DRKIAGSPLTRTCKAGYV	< -0.25
DRL	< -0.25
DRLGR	< -0.25
DRLISLIKLIRMD	< -0.25
DRLTCIESNRGPGITD	< -0.25

Substance	growth estimate
DRLTLVLLVGLVAAGSLWNP	< -0.25
DRPTPESDLGVMHEGDVTVE	-0.248
DRPVLGGSRLLLAHALVGSR	< -0.25
DRQDCGSFRSFHLFSE	< -0.25
DRRGWIVRPNSAAHCGRPRG	-0.25
DRRLCRS	< -0.25
DRRLT	< -0.25
DRRRLGPRTASRNRDGLGMT	< -0.25
DRRYFRTGPRFRALRCLY	< -0.25
DRSG	< -0.25
DRSHQFSWKERAGRVP	< -0.25
DRSRVLGSRQSVMA	< -0.25
DRSTMAAMALLGGKKGLSVR	< -0.25
DRTLYYFTSDESGIRWRIDS	< -0.25
DRTPMTNIRQSNWAFIEGTF	< -0.25
DRVGLILRSYARCRMRIIPR	< -0.25
DRVRVVTW	< -0.25
DRVSTHACVSTT	< -0.25
DRVTGVLL	< -0.25
DRWGDSPIRCPMEIAIDPGK	< -0.25
DSAWAGRRSTD	< -0.25
DSCYWATLASIGDLSDSIPV	< -0.25
DSGGTLLFNNLFCYIVERRN	< -0.25
DSGPWTGAILRARCCIYSLL	< -0.25

Substance	growth estimate
DSGTGWCCLRLTTTGGTRPF	< -0.25
DSGTILPL	< -0.25
DSGYGGRGGAGIIVSLPSPC	< -0.25
DSHP	< -0.25
DSITRETAVARAAVTNETHH	< -0.25
DSMSCLHAATLDRSRGGVLH	< -0.25
DSPAGSFRAI	< -0.25
DSPESSN	< -0.25
DSRGAPHGGSLITPFGLGVE	-0.245
DSRIRTDSAVCKTSDETLSL	< -0.25
DSRNPIVK	< -0.25
DSSQR	< -0.25
DSTS	< -0.25
DSTVIVEEGLGG	< -0.25
DTARCFQVQNRVRTPDLPHL	< -0.25
DTAS	< -0.25
DTGGTTGAIFCRAFREV	-0.246
DTGSHIIRPPLRS	< -0.25
DTK	< -0.25
DTLGKL	< -0.25
DTLNHAAS	< -0.25
DTLTIRGPCFRETTQNT	< -0.25
DTMYNGRRGVGLGVP	< -0.25
DTNTGVRGRQNLAEDH	< -0.25

Fetched one by one from the entries so far, six records:
Substance	growth estimate
DPG	< -0.25
DTLGKL	< -0.25
DQFLRAHSGLTRCAHGHCCN	-0.203
DSHP	< -0.25
DRVRVVTW	< -0.25
DTAS	< -0.25
